According to article PMC4747173:
These are yes or no findings as the source states them, for the method shown. In cells and extracts the contact can be indirect. Here binding means that the protein was enriched with, or labelled near, the bait; the list need not be complete. For part of these data: Where a sequence is shown, tags or fusion partners need not be part of it.

Protein sequences, listed by entry. Tags and fused reporters are not part of them.
UniProt O14777: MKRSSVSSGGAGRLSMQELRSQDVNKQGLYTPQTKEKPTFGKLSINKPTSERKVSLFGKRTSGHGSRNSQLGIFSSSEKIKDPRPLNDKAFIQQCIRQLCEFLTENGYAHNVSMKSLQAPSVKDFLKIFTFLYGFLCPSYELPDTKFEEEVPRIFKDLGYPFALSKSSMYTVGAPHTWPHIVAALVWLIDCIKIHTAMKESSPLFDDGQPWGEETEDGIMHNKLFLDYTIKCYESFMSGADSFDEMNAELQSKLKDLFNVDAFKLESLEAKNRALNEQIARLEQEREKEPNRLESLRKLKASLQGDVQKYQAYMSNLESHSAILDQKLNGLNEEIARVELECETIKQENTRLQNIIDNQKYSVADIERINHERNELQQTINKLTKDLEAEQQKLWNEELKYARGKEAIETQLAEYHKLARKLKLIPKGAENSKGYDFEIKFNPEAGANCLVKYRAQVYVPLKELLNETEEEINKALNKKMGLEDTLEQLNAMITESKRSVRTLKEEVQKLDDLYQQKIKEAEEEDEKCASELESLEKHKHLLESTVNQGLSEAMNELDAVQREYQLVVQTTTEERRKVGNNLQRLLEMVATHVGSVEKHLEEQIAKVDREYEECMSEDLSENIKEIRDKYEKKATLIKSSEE

T1: FLAG-HA-ASPP1 (stably expressed in HeLa cells) (UniProt Q96KQ4)
T1 sequence: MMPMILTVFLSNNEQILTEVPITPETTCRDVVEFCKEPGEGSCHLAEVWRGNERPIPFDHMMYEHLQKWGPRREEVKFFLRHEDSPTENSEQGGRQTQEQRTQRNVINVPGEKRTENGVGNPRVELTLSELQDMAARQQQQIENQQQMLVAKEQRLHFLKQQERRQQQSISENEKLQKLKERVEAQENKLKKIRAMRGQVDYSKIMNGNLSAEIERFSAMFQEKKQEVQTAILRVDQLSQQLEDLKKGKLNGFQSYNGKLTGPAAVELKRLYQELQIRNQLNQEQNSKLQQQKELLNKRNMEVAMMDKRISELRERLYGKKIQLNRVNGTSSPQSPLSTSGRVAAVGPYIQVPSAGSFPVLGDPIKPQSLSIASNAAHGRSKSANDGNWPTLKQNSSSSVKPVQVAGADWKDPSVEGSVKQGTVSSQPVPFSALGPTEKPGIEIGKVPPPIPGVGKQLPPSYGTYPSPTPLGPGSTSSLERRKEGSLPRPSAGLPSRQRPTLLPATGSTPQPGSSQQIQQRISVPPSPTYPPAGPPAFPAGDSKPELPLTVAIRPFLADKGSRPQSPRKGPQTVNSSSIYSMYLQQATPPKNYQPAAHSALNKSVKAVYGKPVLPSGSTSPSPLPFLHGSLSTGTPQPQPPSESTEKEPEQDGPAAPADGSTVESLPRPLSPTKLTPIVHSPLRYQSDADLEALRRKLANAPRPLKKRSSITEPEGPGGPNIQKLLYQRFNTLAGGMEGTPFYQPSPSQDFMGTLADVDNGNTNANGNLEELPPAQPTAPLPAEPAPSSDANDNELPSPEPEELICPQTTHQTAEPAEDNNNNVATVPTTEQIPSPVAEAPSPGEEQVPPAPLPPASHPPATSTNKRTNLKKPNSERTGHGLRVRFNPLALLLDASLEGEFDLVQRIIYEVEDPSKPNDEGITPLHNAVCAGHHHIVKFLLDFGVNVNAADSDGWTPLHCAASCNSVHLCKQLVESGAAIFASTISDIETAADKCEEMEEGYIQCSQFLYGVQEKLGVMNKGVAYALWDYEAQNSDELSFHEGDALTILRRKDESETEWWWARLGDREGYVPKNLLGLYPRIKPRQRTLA

T2: FLAG-HA-ASPP2 (stably expressed in HeLa cells) (UniProt Q13625)
T2 sequence: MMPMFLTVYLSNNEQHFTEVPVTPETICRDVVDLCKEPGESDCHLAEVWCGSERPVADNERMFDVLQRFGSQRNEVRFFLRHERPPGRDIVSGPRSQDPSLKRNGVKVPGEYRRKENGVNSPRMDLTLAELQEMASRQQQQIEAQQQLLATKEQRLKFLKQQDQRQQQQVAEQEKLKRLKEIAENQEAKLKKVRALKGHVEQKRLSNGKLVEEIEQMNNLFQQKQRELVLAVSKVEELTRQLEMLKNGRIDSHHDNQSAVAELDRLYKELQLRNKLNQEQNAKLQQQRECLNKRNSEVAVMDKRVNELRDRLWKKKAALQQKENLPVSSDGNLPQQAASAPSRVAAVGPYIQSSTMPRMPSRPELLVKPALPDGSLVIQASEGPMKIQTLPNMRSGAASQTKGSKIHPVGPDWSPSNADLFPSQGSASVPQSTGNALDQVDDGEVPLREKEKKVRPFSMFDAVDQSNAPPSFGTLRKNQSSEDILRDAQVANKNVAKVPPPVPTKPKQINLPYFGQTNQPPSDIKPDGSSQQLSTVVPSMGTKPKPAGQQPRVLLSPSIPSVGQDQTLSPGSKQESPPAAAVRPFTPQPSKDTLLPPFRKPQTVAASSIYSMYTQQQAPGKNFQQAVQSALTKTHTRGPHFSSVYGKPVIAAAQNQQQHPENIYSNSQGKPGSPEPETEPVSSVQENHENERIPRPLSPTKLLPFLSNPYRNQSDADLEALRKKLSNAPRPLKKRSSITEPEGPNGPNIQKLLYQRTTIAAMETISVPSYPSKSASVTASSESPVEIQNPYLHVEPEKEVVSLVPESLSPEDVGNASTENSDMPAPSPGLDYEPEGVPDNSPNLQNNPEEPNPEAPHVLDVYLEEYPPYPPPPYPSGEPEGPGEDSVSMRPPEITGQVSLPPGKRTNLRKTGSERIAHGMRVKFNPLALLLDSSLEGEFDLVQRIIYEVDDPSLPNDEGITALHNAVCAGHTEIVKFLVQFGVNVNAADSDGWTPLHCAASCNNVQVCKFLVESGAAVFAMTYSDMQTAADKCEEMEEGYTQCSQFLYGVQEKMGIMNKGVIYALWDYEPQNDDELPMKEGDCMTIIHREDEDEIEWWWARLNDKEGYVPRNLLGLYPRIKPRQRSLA

B1: RASSF7 (endogenous) (protein, UniProt Q02833 1-373)
chain: MLLGLAAMELKVWVDGIQRVVCGVSEQTTCQEVVIALAQAIGQTGRFVLVQRLREKERQLLPQECPVGAQATCGQFASDVQFVLRRTGPSLAGRPSSDSCPPPERCLIRASLPVKPRAALGCEPRKTLTPEPAPSLSRPGPAAPVTPTPGCCTDLRGLELRVQRNAEELGHEAFWEQELRREQAREREGQARLQALSAATAEHAARLQALDAQARALEAELQLAAEAPGPPSPMASATERLHQDLAVQERQSAEVQGSLALVSRALEAAERALQAQAQELEELNRELRQCNLQQFIQQTGAALPPPPRPDRGPPGTQGPLPPAREESLLGAPSESHAGAQPRPRGGPHDAELLEVAAAPAPEWCPLAAQPQAL
B2: PPM1B (endogenous) (enzyme, UniProt O75688 1-479)
chain: MGAFLDKPKTEKHNAHGAGNGLRYGLSSMQGWRVEMEDAHTAVVGIPHGLEDWSFFAVYDGHAGSRVANYCSTHLLEHITTNEDFRAAGKSGSALELSVENVKNGIRTGFLKIDEYMRNFSDLRNGMDRSGSTAVGVMISPKHIYFINCGDSRAVLYRNGQVCFSTQDHKPCNPREKERIQNAGGSVMIQRVNGSLAVSRALGDYDYKCVDGKGPTEQLVSPEPEVYEILRAEEDEFIILACDGIWDVMSNEELCEYVKSRLEVSDDLENVCNWVVDTCLHKGSRDNMSIVLVCFSNAPKVSDEAVKKDSELDKHLESRVEEIMEKSGEEGMPDLAHVMRILSAENIPNLPPGGGLAGKRNVIEAVYSRLNPHRESDGASDEAEESGSQGKLVEALRQMRINHRGNYRQLLEEMLTSYRLAKVEGEESPAEPAATATSSNSDAGNPVTMQESHTESESGLAELDSSNEDAGTKMSGEKI

Assays:
[1] = target: T1, FLAG-HA-ASPP1 (stably expressed in HeLa cells); assay: affinity purification with mass spectrometry; tandem affinity purification (anti-FLAG M2 agarose, FLAG peptide elution, then anti-HA agarose, HA peptide elution) from HeLa cells stably expressing FH-ASPP1 or FH-ASPP2; lysis in BC100 buffer (20 mM Tris-Cl pH 7.9, 100 mM NaCl, 0.2 mM EDTA, 20% glycerol) with 0.2% Triton X-100; proteins found in MOCK HeLa cells omitted
[2] = target: T2, FLAG-HA-ASPP2 (stably expressed in HeLa cells); assay: as above
[3] = target: FLAG-HA-Hec1 (stably expressed in HeLa cells) (UniProt O14777); assay: affinity purification with mass spectrometry; tandem affinity purification of the Hec1-containing complex from HeLa cells stably expressing FLAG-HA (FH)-Hec1; SDS-PAGE, mass spectrometry

Binder	binding [1]	binding [2]	binding [3]
B1	binds	binds	
B2			binds
